From PubChem BioAssay AID504834 (National Center for Advancing Translational Sciences (NCATS), 2011)
The whole screen tested about 320,000 compounds, of which about 22,000 (6.9%) were called active. Inconclusive means that the source gave no clear call. Such entries were picked first, then a sample of the others. Calls come from the whole dose curve; as a rule, active = well fitted inhibition curve with a large enough effect; inconclusive = small, poorly fitted or top-dose-only effect, or another doubt; inactive = no such curve, though single readings can be large or run the other way. Where the call is inconclusive, the potency comes from a doubtful curve fit.
% is set by controls: 0 for no effect and ±100 for the full control effect; potency is the fitted concentration of half-maximal effect.

Test: Primary qHTS for delayed death inhibitors of the malarial parasite plastid, 96 hour incubation
Conditions: P. falciparum luciferase reporter growth; series mostly up to 28.7 µM
How it was run: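 Delayed-death screen, second-generation endpoint: infected erythrocytes, 2% hematocrit, 0.05% parasitemia final; 96 hours at 37 C, 5% CO2; luciferase detection reagent; luminescence decrease equals reduced growth.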
For `NNC(=O)CNC(=O)c1ccc(F)cc1`, the Potency was inconclusive: 0.928 µM [inhibitor, partial curve, poor fit].
In the case of `CCC1(c2ccccc2)C(=O)N(C(=O)OC(C)(C)C)N1C(=O)OC(C)(C)C` (stereo not drawn), the Potency was inconclusive: 13.1 µM [inhibitor, partial curve].
In the case of `NC(=O)C1CCN(c2nc(-c3cccc(N)c3)cs2)CC1`, the Potency was inconclusive: 11.7 µM [activator, single point].
For `COc1ccccc1NC(=O)c1ccc([N+](=O)[O-])cc1[N+](=O)[O-]`, the Potency was inconclusive: 9.28 µM [inhibitor, partial curve, poor fit].
With `O=C(CCn1c(=S)oc2ccccc21)N1CCCCC1` the Potency was inconclusive: 18.5 µM [inhibitor, single point].
With `Cc1ccc(S(=O)(=O)N2CCC(C(=O)Nc3ccccc3N3CCCC3)CC2)cc1C` the Potency was inconclusive: 18.5 µM [inhibitor, single point].
With `O=C(Cc1ccccc1)N1CCCC(c2nc(-c3ccc(S(=O)(=O)N4CCCC4)cc3)no2)C1` (stereo not drawn) the Potency was active: 8.28 µM.
With `Cc1ccc(S(=O)(=O)N2CCN(C(=O)Cn3c(=O)oc4ccccc43)CC2)c(C)c1` the Potency was inconclusive: 18.5 µM [inhibitor, single point].
For `COc1c(C)oc2cc(O)ccc2c1=O`, the Potency was “inactive”.
For `COc1ccc(NC(=O)CNC(=O)c2ccco2)cc1`, the Potency was inconclusive: 18.5 µM [inhibitor, single point].
For `COc1ccccc1NC(=O)c1ccc2c(=O)n3c(nc2c1)CCC3`, the Potency was inconclusive: 18.5 µM [inhibitor, single point].
For `Cc1ccc(S(=O)(=O)N2CCN(C(=O)c3c(-c4ccccc4)noc3C)CC2)c(C)c1`, the Potency was inconclusive: 11.7 µM [inhibitor, partial curve, poor fit].
In the case of `CCC(=O)Nc1nnc(S(=O)(=O)N(C)Cc2ccco2)s1`, the Potency was inconclusive: 14.7 µM [inhibitor, single point].
With `CCCC(=O)N(Cc1cc2cccc(C)c2[nH]c1=O)c1ccccc1OC` the Potency was “inactive”.
For `Cc1cc(=O)[nH]c(SCc2csc(-c3ccccc3)n2)n1`, the Potency was “inactive”.
For `CN1C(C(=O)NCc2cccc(C(F)(F)F)c2)CC2Cn3c(nc4cc5ccccc5cc43)C21` (stereo not drawn), the Potency was “inactive”.
With `COc1cc(/C=N/NC(=O)c2cncc(Br)c2)ccc1OC(=O)c1ccc2c(c1)OCO2` the Potency was inconclusive: 0.0033 µM [inhibitor, full curve, poor fit].
With `O=C(Cc1ccc(F)cc1)Nc1nccs1` the Potency was inconclusive: 18.5 µM [inhibitor, single point].
With `O=C(Nc1ccc(C(=O)O)cc1)/C(=C/c1ccc2c(c1)OCO2)NC(=O)c1cccc(Br)c1` the Potency was inconclusive: 11.7 µM [inhibitor, single point].
For `CCNC(=O)c1ccc(CSc2ccc(Cl)cc2)cc1`, the Potency was inconclusive: 10.4 µM [inhibitor, partial curve, poor fit].
In the case of `O=C(Nc1ccccc1N1CCCCC1)C1CC(=O)N(c2ccccc2F)C1` (stereo not drawn), the Potency was inconclusive: 4.65 µM [inhibitor, partial curve, poor fit].
In the case of `COn1c(SCc2ccc(C)cc2C)nc2ccccc2c1=O`, the Potency was inconclusive: 1.17 µM [inhibitor, full curve].
In the case of `CC(=O)C1=C(O)C(=O)N(Cc2ccco2)C1c1cccc(F)c1` (stereo not drawn), the Potency was inconclusive: 18.5 µM [inhibitor, single point].
With `CC(=O)OC(C)[C@H]1CC[C@H]2[C@@H]3CC[C@H]4C[C@@H](OC(C)=O)CC[C@]4(C)C3=CC[C@]12C` (stereo partly drawn) the Potency was “inactive”.
For `C/C(=N\NC(=O)c1cccnc1)c1cc(C)oc1C`, the Potency was “inactive”.
For `CCc1ccc2oc(-c3ccc(OC)cc3)cc(=Nc3c(C)n(C)n(-c4ccccc4)c3=O)c2c1`, the Potency was inconclusive: 4.15 µM [inhibitor, partial curve, poor fit].
For `COc1cc2c(cc1OC)CN(C(=O)CN1C(=O)NC3(CCC(C)CC3)C1=O)CC2` (stereo not drawn), the Potency was inconclusive: 18.5 µM [inhibitor, single point].
For `Cc1csc(SCC(=O)NC(=O)NC2CCCC2)n1`, the activity change, negative = inhibition was inactive: 38.4% [at 5.75 µM].
For `CCN(CC)S(=O)(=O)c1ccc2[nH]c(=O)c3ccccc3c2c1`, the Potency was “inactive”.
In the case of `N=c1nc(N)nc2n1NC(c1ccc(F)cc1)=CS2`, the Potency was inconclusive: 18.5 µM [inhibitor, single point].
In the case of `CCCN1CCN(CC(=O)NCC(=O)Nc2cccc(C)c2C)CC1`, the Potency was “inactive”.
In the case of `CCN(C(=O)COC(=O)c1oc2ccccc2c1C)c1c(N)n(Cc2ccccc2)c(=O)[nH]c1=O`, the Potency was inconclusive: 18.5 µM [inhibitor, single point].
With `COCCCN1C(=O)c2ccc(C(=O)Nc3ccc(OC)cc3)cc2C1=O` the Potency was inconclusive: 10.4 µM [inhibitor, partial curve, poor fit].
With `CCCCCCSc1cc(-c2nc3ccc(Cl)cn3c2NC2CCCCC2)ccc1OC` the Potency was inconclusive: 4.15 µM [inhibitor, single point].
In the case of `CCCN1CNC(=S)N(c2ccc(C)cc2C)C1`, the Potency was inconclusive: 13.1 µM [inhibitor, partial curve, poor fit].
For `Cn1c(=O)[nH]c(=O)c2c1nc(NCCc1ccccc1)n2CC(O)COc1ccccc1` (stereo not drawn), the Potency was inconclusive: 2.94 µM [inhibitor, full curve].
With `CCCc1nn2c(=O)c(C(c3cccc(Cl)c3)c3c(O)nc4sc(CCC)nn4c3=O)c(O)nc2s1` the Potency was “inactive”.
For `COc1ccc(C2=NN(C(C)=O)C(c3ccccc3)C2)cc1` (stereo not drawn), the Potency was inconclusive: 18.5 µM [inhibitor, single point].
For `COc1ccc(CCNC(=O)Cc2c(Cl)cccc2Cl)cc1`, the Potency was “inactive”.
With `O=S(=O)(c1ccc(Br)s1)N1CCC2(CC1)OCCO2` the Potency was inconclusive: 18.5 µM [inhibitor, single point].
In the case of `Cc1ccccc1C(=O)Nc1ccc(N2CCN(C)CC2)nc1`, the Potency was “inactive”.
For `O=C(COc1ccc(Br)cc1)Nc1ccccc1N1CCCC1`, the Potency was inconclusive: 18.5 µM [inhibitor, single point].
In the case of `CCOc1ccccc1C1CC(c2ccccc2)Nc2nc(N)nn21` (stereo not drawn), the Potency was “inactive”.
In the case of `COC(=O)c1sc(NC(=O)C(C)c2ccccc2)nc1C` (stereo not drawn), the Potency was inconclusive: 13.1 µM [inhibitor, partial curve, poor fit].
For `Cn1ncc([N+](=O)[O-])c1C(=O)Nc1ccc2c(c1)OCCO2`, the Potency was “inactive”.
With `COc1cc(C2C3=C(Nc4ncnn42)c2ccccc2CC3)cc(OC)c1OC` (stereo not drawn) the Potency was inconclusive: 0.0029 µM [inhibitor, full curve, poor fit].
For `Cc1ccc(N2C(=O)CSC2c2cccnc2)c(Cl)c1` (stereo not drawn), the Potency was inconclusive: 0.0415 µM [inhibitor, full curve, poor fit].
With `CCN(CCNC(=O)c1ccc(C#N)cc1)c1cccc(C)c1` the Potency was inconclusive: 10.4 µM [inhibitor, partial curve, poor fit].
For `CC1CCCN(S(=O)(=O)c2ccc3c(c2)c(=O)nc2ccc(Cl)cn23)C1` (stereo not drawn), the Potency was inconclusive: 18.5 µM [inhibitor, single point].
With `Cc1ccc(NC(=O)c2sccc2C)nc1` the Potency was “inactive”.
With `CCC(C(=O)NCCc1ccccc1)c1ccccc1` (stereo not drawn) the Potency was inconclusive: 14.7 µM [inhibitor, single point].
With `Cc1ccc(C(C(=O)NC2CCCC2)N2CCc3ccccc32)cc1` (stereo not drawn) the Potency was inconclusive: 18.5 µM [inhibitor, single point].
With `CC(=O)N1CCOc2ccc(S(=O)(=O)N3CCCC(C)C3)cc21` (stereo not drawn) the Potency was active: 11.7 µM.
In the case of `CC1CCN(C(=O)Cn2cnc3c2c(=O)n(C)c(=O)n3C)c2ccccc2S1` (stereo not drawn), the Potency was “inactive”.
In the case of `Cc1cc(=O)[nH]c(NN=C2CCC(C(C)(C)C)CC2)n1` (stereo not drawn), the Potency was inconclusive: 4.65 µM [inhibitor, single point].
For `COc1c(C)c2c(c(O)c1CC=C(C)CCC(=O)OCCN1CCOCC1)C(=O)OC2`, the Potency was “inactive”.
For `COc1ccc(Oc2nccc(-c3ccc(F)cc3)c2C#N)cc1`, the Potency was inconclusive: 0.415 µM [inhibitor, full curve, poor fit].
With `CCC(C(=O)NCCc1ccccc1OC)n1nc(C)c2c(C)n(-c3ccccc3)nc2c1=O` (stereo not drawn) the Potency was active: 11.7 µM.
With `COc1ccc(OCCC(=O)OCC(=O)c2ccc[nH]2)cc1` the Potency was inconclusive: 2.08 µM [inhibitor, single point].
For `COc1ccc(-c2nnc(SCC(=O)Nc3ccc(Cl)cc3)n2C)cc1`, the Potency was inconclusive: 18.5 µM [inhibitor, single point].
With `Oc1c(Br)cc(Br)cc1CNc1ccc(F)cc1` the Potency was inconclusive: 14.7 µM [inhibitor, single point].
For `COc1cc(/C=C2\SC(=S)N(NC(=O)c3ccc(O)cc3)C2=O)ccc1O`, the Potency was “inactive”.
With `CC1Cc2nc(SCC(=O)N3CCN(c4ccccc4)CC3)n(CCc3ccccc3)c(=O)c2S1` (stereo not drawn) the Potency was inconclusive: 13.1 µM [inhibitor, partial curve, poor fit].
In the case of `CCc1ccc(-c2cc(C(F)(F)F)n3nc(C(=O)Nc4c(C)nn(Cc5ccc(F)cc5)c4C)cc3n2)s1`, the activity change, negative = inhibition was inactive: 3.21% [at 5.75 µM].
In the case of `COc1ccc(OCc2nnc(SCC(=O)N3c4ccccc4Sc4ccc(Cl)cc43)o2)cc1`, the Potency was inconclusive: 18.5 µM [inhibitor, single point].
With `COc1ccc(NS(=O)(=O)c2cccc(C(=O)N/N=C(\C)c3cccnc3)c2)cc1` the Potency was inconclusive: 18.5 µM [inhibitor, single point].
With `COC(=O)C1=C(C)NC(C)=C(C(=O)OC)C1/C=C/c1ccccc1` the Potency was inconclusive: 8.28 µM [inhibitor, partial curve].
With `CN1C(=O)CSc2ccc(NC(=O)NCc3ccccc3)cc21` the Potency was “inactive”.
